Laboratory results published in PubChem BioAssay AID2685 (National Center for Advancing Translational Sciences (NCATS), 2010).
The list shows a part of the results. Shown are side measurements of this screen, not its main read-out; they come without a call. Most of these compounds were active or inconclusive in the main read-out, so they are no random draw. Words in brackets tell the shape of the fitted curve; partial curves, single points and poor fits give uncertain potencies.

Assay: qHTS Assay for Lipid Storage Modulators in Drosophila S3 Cells;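 on cell number change: cells counted by Cell Tracker Red CMTPX staining in the red channel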
Conditions: BODIPY lipid droplet fluorescence, 18-24 h; for cell number change: measured here: cell count max response, cells fed with added oleic acid
How it was run: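 Drosophila S3 cells got compounds at several concentrations plus oleic acid (400 uM solution). Laser-scanning cytometry with 488 nm excitation read lipid droplets at 500-530 nm and cells at 575-640 nm. Percent activity was relative to 20 uM Triacsin C.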

[1] = measured here: cell number channel AC50, cells fed with added oleic acid
[2] = measured here: lipid fluorescence (Fed channel) AC50, cells fed with added oleic acid

Row | SMILES | cell number change | AC50 [1] | AC50 [2]
1 | C=CCn1c(SCc2c(C)noc2C)nc2ccccc2c1=O | 49.2% | 1.84 µM [rising, partial curve] | 0.58 µM [rising, single point]
2 | Cc1cccc(NC(=O)[C@H](C)NC(=O)[C@@H]2Cc3ccccc3CN2C(=O)OC(C)(C)C)c1 | 2.64% |  | 23.1 µM [falling, partial curve]
3 | CCCCN(C)C(=O)c1cn(CC)c2ccc(S(=O)(=O)N(C)C)cc2c1=O | -31% | 8.2 µM [falling, partial curve] | 
4 | CCOC(=O)Cn1ccc(NC(=O)c2ccc(F)cc2)n1 | 10.8% | 3.66 µM [rising, partial curve, poor fit] | 6.51 µM [rising, single point]
5 | O=C(CCN1C(=O)/C(=C/c2ccccc2)SC1=S)N1CCCCCC1 | 3.95% |  | 
6 | Cc1ccc(S(=O)(=O)NC2CC(C)(C)NC(C)(C)C2)cc1C | 25.6% |  | 29.1 µM [rising, single point]
7 | CC1(C)C(=O)Nc2ccccc2N1C(=O)COC(=O)c1cc(S(C)(=O)=O)ccc1Cl | -10.5% |  | 0.58 µM [rising, single point]
8 | O=C(Nc1ccc(Cn2cccn2)cc1)c1ccc(COc2ccccc2Br)cc1 | -12.8% |  | 1.84 µM [falling, partial curve]
9 | O=c1nc(N/N=C/c2c[nH]c3ccccc23)cn[nH]1 | -48.4% | 4.61 µM [falling, full curve, poor fit] | 0.116 µM [falling, full curve]
10 | COc1ccc(Nc2nc(-c3ccccc3)nc3ccccc23)c(OC)c1 | 62.8% | 29.1 µM [rising, single point] | 0.116 µM [rising, full curve, poor fit]
11 | O=C(CSc1nnc(CNC(=O)C23CC4CC(CC(C4)C2)C3)n1-c1ccc(F)cc1)Nc1ccc(F)cc1 | -31.3% | 20.6 µM [falling, single point] | 29.1 µM [falling, single point]
12 | O=C(Nc1ccc(C(=O)N2CCN(c3ccc(Cl)cc3)CC2)cc1)C1=CSCCO1 | 63.7% | 8.2 µM [rising, partial curve] | 5.8 µM [rising, single point]
13 | CN(C)S(=O)(=O)c1ccc(C(=O)NCCN2C(=O)S/C(=C\c3cccnc3)C2=O)cc1 | -7.38% |  | 
14 | COc1ccc(NC(=O)CSc2nnnn2-c2ccccc2OC)c(OC)c1 | -7.21% |  | 0.116 µM [falling, full curve, poor fit]
15 | COc1ccc(S(=O)(=O)CCC(=O)NCCc2ccc(S(N)(=O)=O)cc2)cc1 | -6.69% |  | 20.6 µM [falling, single point]
16 | CC(C)c1ccc(C(O)Cc2nc3ccccc3n2C)cc1 (centres undefined) | 13.8% |  | 0.291 µM [rising, full curve, poor fit]
17 | c1ccc(CSc2nnc(-c3ccccn3)n2-c2ccccc2)cc1 | 50.6% | 23.1 µM [rising, single point] | 
18 | Cc1ccc2c(c1)N(S(=O)(=O)c1ccc(CN3C(=O)c4cccnc4C3=O)cc1)CCO2 |  |  | 29.1 µM [rising, single point]
19 | C=CCn1c(CNc2ccc(C)cc2)nnc1SCC(=O)N/N=C/c1ccc(O)cc1O | -17.6% |  | 29.1 µM [rising, single point]

Row | SMILES | cell number change | AC50 [1] | AC50 [2]
20 | CNC(=O)NC(=O)CSc1nc2ccccc2n1CCOC | 10.5% |  | 18.4 µM [rising, single point]
21 | CC(C)CCCC(C)NC(=O)c1cc(S(=O)(=O)N2CCCCC2)ccc1N1CCOCC1 (centres undefined) | -9.59% |  | 2.06 µM [rising, single point]
22 | Cc1ccccc1C(=O)Oc1ccc(-c2csnn2)cc1 | 2.68% |  | 0.291 µM [rising, full curve, poor fit]
23 | CC1Cc2nc(SCC(=O)Nc3ccc(F)cc3F)n(C)c(=O)c2S1 (centres undefined) | 1.95% |  | 
24 | CC1CCCN(Cc2c(O)ccc3c(=O)c(-c4ccc(Cl)cc4)coc23)C1 (centres undefined) | 23.6% |  | 
25 | Cc1ccc(S(=O)(=O)N2CCC(C(=O)OC(C)C(=O)NCc3ccc4c(c3)OCO4)CC2)cc1 (centres undefined) | 3.26% |  | 0.651 µM [falling, single point]
26 | CCc1ccc(OCC(=O)Nc2nnc(-c3ccco3)s2)cc1 | 13.1% |  | 29.1 µM [rising, single point]
27 | COc1cc2[nH]c(=S)nc(NCc3ccccc3)c2cc1OC | -1.39% | 0.00461 µM [falling, full curve, poor fit] | 
28 | CC(=O)N1CCN(S(=O)(=O)c2ccc(S(=O)(=O)NC3CC3)cc2)CC1 | 72.1% | 18.4 µM [rising, single point] | 20.6 µM [rising, single point]
29 | NS(=O)(=O)c1ccc(NC(=O)Cc2cccs2)cc1 | -10.2% |  | 29.1 µM [rising, single point]
30 | COCCNC(=O)CSc1ccccc1C(=O)O | 32% | 14.6 µM [rising, single point] | 29.1 µM [rising, single point]
31 | COc1cnc(-c2ccccc2)nc1Oc1cccc(C)c1 | -19.6% |  | 6.51 µM [rising, single point]
32 | CCn1c(SCC(=O)NC2CC2)nnc1-c1cccc(OC)c1 | 9.39% |  | 
33 | CC(C)Oc1ccc(NC(=O)c2ccncc2)cc1 |  | 0.103 µM [falling, partial curve, poor fit] | 
34 | Cc1ccc(Cl)c(OCC(=O)Nc2cc(S(=O)(=O)N3CCOCC3)ccc2N2CCCC2)c1 | 7.52% |  | 35.5 µM [rising, single point]
35 | O=C(Cc1cccs1)NNC(=O)c1ccc(F)cc1 | 4.77% | 0.326 µM [falling, partial curve, poor fit] | 
36 | COc1ccc(C(=O)Nc2cc(-c3nn4c(C)nnc4s3)ccc2C)cc1 |  |  | 0.00461 µM [rising, full curve, poor fit]
37 | CC1CCCN(C(=O)C2CCN(C(=O)Nc3ccccc3)CC2)C1 (centres undefined) | -11.5% |  | 1.3 µM [falling, full curve]

3 of the compounds above, in markdown:

| Row | SMILES | cell number change | AC50 [1] | AC50 [2] |
| --- | --- | --- | --- | --- |
| 20 | CNC(=O)NC(=O)CSc1nc2ccccc2n1CCOC | 10.5% |  | 18.4 µM [rising, single point] |
| 21 | CC(C)CCCC(C)NC(=O)c1cc(S(=O)(=O)N2CCCCC2)ccc1N1CCOCC1 (centres undefined) | -9.59% |  | 2.06 µM [rising, single point] |
| 22 | Cc1ccccc1C(=O)Oc1ccc(-c2csnn2)cc1 | 2.68% |  | 0.291 µM [rising, full curve, poor fit] |
